Test results as given in patent US11129819B2, “Fumarate analogs and uses thereof” (Rigel Pharmaceuticals, Inc., priority 2014, dated 2021).
Where a name gives a salt, the structure may show the parent alone.

Assay: Glutathione depletion assay (Michael addition to glutathione followed by 1H NMR)
Type: physicochemical
Conditions: 2 equiv. reduced glutathione, d6-DMSO, 35° C., majority reaction = greater than 50% reduction in alkene proton signal
Text: 1. Glutathione Depletion Assay
In one aspect the present compounds exert their therapeutic effects by acting as a Michael acceptor for reactive thiol groups in vivo. See, for example, Lehmann et al. Dimethyfumarate Induces Immunosuppression via Glutathione Depletion and Subsequent Induction of Heme Oxygenase 1, Journal of Investigative Dermatology (2007) 127, 835-845. Accordingly, the present compounds may be assessed in vitro by reaction with glutathione as follows:
A mixture of dimethylfumarate (5.2 mg, 3.6 mmol) and reduced glutathione (22.4 mg, 7.3 mmol; 2 equiv.) in d6-DMSO (1.2 mL) were combined in a screw-top vial and the mixture was stirred at 35° C. (with the top securely fastened). Aliquots of sample were removed at intermittent timepoints and a ^1H NMR taken [note: after analysis by ^1H NMR, the sample can be returned to the heated vial and reaction continued). ^1H NMR indicates majority reaction with glutathione (by Michael addition to the double bond) after 3 hr, and complete reaction by 27 hr.
The above reaction was repeated using monomethylfumarate (11.4 mg, 8.8 mmol) and reduced glutathione (55.5 mg, 18.0 mmol) in d6-DMSO (3.0 mL) at 35° C. As judged by 1H NMR, majority reaction was observed by 27 hr.
The above reaction was repeated using methyl (E)-3-(5-oxo-4,5-dihydro-1H-tetrazol-1-yl)acrylate (6.2 mg, 3.6 mmol) and reduced glutathione (22.4 mg, 7.2 mmol) in d6-DMSO (1.2 mL) at 35° C. As judged by ^1H NMR, majority reaction was observed by 30 hr.
As judged by ^1H NMR, majority reaction was observed by 30 hr.
In all the above cases, dis-appearance of the alkene proton signals from the starting material are used to determine the extent of Michael reaction with glutathione.
As would be understood by those of skill in the art, the above experiments can be repeated by varying the equivalents of reduced glutathione (0.5 to 2 equivalents); the reactions can also be run in a mixture of d6-DMSO and D2O; and the temperature of the reaction can also be varied from room temperature to 35° C. (35° C. being used to mimic body temperature). […]
In the case of `COC(=O)/C=C/n1nn[nH]c1=O` [Compound 1, methyl (E)-3-(5-oxo-4,5-dihydro-1H-tetrazol-1-yl)acrylate], the “time to majority reaction with glutathione (Michael addition to the double bond)” value (“time to majority reaction” for short) is reported as no more than 30 h. For `COC(=O)/C=C/n1nnn(C)c1=O` [Compound 2, methyl (E)-3-(4-methyl-5-oxo-4,5-dihydro-1H-tetrazol-1-yl)acrylate], the “time to majority reaction” value was no more than 30 h. For `COC(=O)/C=C/C(=O)OC` [dimethyl fumarate, reference compound], the “time to majority reaction” value was no more than 3 h.
